Reference: the supplement of paper PMC12823440, “Inhibitors supercharge kinase turnover through native proteolytic circuits” (Nature, 2025)
Counter-ions that a name gives are not always drawn. Some of the results follow. The calls rarely recur for the same compound in another form.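 In K562 cells expressing nanoluciferase-fused kinases, luminescence was recorded at 4 h intervals between 2 and 18 h, normalized as percent of control with DMSO at 100% and a positive control at 0%. A significant (2 sigma) signal drop marks a time point as decreased. The authors' rule for a hit is not shown and takes in more than the number of time points.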

By UniProt entry, the sequences of proteins in these tests, tags left out. Where a name states a change or a piece, a line headed by the entry shows the natural chain unless it says otherwise.
UniProt P53350, whole entry: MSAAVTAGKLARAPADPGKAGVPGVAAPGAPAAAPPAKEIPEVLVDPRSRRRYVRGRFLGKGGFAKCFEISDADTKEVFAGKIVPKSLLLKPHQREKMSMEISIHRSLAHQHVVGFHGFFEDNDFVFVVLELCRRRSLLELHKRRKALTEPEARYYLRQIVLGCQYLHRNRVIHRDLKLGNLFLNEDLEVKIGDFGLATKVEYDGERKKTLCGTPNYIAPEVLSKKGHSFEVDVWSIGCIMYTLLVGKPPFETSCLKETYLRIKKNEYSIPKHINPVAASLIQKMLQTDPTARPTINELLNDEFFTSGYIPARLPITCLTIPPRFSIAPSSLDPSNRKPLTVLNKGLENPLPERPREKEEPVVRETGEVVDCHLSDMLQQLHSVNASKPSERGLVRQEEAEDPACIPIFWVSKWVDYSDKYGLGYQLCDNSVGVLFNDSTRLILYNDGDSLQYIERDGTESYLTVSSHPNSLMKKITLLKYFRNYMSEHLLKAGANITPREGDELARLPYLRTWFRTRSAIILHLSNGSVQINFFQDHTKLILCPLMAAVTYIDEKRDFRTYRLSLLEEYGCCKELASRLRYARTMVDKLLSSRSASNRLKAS
UniProt Q14289, whole entry, looked up: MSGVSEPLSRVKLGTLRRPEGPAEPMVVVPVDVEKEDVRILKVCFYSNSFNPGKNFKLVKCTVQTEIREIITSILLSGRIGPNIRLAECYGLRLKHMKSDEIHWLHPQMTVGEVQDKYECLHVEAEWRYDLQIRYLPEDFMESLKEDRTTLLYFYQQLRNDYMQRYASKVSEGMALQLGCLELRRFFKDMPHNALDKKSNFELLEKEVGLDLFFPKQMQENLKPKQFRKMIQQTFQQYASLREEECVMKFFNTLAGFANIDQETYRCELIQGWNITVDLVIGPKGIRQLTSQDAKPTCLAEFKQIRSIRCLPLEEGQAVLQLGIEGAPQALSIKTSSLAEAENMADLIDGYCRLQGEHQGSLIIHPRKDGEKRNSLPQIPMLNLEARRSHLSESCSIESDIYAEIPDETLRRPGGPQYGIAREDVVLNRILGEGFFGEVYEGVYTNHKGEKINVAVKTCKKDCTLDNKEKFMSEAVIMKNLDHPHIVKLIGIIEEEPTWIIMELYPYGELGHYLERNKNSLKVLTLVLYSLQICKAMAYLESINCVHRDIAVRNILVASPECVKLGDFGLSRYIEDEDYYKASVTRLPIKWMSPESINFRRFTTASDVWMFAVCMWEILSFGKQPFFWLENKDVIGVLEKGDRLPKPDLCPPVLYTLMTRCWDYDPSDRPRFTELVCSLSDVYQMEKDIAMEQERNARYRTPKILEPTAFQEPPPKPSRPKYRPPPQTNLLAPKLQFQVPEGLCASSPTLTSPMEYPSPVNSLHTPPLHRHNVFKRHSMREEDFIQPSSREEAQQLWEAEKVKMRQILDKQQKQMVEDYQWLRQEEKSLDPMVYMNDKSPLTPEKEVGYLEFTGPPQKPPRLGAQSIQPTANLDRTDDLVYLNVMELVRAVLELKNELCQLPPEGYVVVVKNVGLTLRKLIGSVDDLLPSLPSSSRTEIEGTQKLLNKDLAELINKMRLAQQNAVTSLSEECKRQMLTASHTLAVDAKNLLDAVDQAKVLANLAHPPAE
UniProt P07949, whole entry, looked up: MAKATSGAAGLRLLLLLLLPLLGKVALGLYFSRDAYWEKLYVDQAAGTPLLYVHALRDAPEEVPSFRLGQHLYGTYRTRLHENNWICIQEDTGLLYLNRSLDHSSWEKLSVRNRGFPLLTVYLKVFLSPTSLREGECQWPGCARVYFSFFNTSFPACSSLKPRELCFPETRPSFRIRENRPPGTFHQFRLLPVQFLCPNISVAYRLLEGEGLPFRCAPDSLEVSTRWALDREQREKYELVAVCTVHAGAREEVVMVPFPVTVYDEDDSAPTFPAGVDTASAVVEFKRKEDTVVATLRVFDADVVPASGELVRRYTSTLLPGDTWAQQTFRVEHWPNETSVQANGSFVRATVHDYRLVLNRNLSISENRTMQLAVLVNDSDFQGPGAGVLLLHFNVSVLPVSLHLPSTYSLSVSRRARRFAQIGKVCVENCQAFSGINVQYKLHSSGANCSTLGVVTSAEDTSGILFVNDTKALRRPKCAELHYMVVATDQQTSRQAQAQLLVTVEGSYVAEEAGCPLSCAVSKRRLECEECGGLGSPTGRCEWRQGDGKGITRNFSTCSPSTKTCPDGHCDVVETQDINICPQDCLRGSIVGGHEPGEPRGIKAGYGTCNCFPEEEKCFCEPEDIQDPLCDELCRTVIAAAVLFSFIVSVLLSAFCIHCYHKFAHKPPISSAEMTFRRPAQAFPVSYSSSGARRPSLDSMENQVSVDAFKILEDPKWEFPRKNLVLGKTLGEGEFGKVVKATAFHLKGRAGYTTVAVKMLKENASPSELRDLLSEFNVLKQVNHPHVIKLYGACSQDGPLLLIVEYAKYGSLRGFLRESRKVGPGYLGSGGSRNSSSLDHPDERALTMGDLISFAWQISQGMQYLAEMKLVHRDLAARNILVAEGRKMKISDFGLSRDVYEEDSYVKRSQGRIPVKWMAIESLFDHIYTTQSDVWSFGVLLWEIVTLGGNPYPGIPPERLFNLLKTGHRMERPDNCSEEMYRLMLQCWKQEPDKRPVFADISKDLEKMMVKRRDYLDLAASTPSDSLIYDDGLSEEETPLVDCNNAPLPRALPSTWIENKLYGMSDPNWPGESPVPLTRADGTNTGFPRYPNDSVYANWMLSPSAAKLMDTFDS
UniProt P07949, whole entry M918T, looked up: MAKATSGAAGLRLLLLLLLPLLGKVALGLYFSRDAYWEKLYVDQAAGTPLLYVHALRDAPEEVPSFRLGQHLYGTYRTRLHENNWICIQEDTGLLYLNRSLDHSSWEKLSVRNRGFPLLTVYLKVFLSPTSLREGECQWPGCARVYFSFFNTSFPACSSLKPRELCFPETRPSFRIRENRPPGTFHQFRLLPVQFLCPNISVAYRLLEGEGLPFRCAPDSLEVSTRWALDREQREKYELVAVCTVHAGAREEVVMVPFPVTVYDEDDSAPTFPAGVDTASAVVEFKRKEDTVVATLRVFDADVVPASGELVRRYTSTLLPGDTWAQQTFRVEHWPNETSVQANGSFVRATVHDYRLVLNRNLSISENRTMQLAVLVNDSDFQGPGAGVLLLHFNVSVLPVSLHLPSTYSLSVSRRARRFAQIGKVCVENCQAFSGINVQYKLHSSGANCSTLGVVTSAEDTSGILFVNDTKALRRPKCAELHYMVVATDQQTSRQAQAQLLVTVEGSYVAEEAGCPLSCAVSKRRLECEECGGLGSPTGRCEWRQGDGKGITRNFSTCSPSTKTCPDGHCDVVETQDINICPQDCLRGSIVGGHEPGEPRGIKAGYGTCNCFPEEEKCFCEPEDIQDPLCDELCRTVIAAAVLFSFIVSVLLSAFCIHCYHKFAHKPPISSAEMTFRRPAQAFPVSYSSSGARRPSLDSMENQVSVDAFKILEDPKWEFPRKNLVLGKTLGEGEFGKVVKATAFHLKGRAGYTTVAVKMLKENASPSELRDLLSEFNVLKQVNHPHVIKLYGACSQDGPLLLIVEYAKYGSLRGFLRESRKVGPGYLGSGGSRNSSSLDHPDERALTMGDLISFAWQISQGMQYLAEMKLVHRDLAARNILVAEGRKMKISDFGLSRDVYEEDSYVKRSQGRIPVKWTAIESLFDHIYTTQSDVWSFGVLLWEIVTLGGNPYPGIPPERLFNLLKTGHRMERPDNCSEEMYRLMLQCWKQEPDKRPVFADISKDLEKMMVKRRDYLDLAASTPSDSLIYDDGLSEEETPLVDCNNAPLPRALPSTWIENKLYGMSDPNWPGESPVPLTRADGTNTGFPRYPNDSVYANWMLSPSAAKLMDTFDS
UniProt Q9BRS2: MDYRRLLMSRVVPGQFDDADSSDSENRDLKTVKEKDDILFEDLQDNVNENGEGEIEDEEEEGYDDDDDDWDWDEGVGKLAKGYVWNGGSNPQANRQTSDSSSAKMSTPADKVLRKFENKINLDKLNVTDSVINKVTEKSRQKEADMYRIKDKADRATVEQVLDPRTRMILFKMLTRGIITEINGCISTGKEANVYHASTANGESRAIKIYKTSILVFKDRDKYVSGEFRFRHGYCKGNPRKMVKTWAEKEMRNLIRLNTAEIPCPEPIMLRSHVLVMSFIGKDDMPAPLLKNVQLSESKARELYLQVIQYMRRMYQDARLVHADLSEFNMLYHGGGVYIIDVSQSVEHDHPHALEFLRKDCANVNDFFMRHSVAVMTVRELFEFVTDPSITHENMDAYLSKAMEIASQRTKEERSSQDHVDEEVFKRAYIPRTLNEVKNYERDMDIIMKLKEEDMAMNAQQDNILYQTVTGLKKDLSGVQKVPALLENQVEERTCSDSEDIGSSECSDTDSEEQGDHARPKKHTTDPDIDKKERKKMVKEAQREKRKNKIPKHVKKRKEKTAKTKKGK
UniProt Q01974, whole entry: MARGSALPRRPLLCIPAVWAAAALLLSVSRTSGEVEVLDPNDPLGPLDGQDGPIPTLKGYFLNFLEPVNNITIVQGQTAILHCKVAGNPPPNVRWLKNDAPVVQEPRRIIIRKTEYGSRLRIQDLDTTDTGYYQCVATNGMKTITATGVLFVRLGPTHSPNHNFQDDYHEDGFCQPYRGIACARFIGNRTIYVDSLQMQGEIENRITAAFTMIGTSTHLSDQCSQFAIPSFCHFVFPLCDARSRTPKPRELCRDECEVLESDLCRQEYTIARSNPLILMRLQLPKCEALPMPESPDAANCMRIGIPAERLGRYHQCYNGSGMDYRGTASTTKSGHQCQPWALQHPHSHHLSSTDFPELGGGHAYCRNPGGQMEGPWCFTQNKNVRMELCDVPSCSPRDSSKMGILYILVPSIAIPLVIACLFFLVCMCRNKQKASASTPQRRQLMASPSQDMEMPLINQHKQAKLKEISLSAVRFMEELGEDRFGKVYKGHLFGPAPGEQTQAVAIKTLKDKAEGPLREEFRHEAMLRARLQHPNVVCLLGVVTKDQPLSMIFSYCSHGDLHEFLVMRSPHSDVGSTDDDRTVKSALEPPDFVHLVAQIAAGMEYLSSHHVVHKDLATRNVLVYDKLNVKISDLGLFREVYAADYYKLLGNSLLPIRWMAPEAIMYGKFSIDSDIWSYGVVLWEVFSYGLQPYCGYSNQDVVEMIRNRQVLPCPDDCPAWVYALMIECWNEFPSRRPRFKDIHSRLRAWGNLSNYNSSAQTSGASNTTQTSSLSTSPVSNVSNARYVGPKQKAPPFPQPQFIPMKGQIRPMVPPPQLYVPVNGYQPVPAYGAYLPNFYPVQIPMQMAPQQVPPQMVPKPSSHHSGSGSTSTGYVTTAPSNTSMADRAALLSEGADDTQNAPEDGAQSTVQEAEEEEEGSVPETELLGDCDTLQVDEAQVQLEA
UniProt Q9NYA1, whole entry: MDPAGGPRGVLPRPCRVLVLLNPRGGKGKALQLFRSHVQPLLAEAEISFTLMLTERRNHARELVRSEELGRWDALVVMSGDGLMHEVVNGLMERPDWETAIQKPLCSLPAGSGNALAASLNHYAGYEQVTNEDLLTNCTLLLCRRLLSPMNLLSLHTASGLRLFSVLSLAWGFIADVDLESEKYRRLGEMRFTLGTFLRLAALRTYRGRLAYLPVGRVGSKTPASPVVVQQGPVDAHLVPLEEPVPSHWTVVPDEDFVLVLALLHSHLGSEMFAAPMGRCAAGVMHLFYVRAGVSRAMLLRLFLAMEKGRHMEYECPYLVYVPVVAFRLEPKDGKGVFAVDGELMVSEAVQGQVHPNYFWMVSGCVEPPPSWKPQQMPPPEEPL

Assays:
Assay in all cases: kinase-Nluc reporter destabilization hit call (1 = scored as downregulated) (binary); higher = compound decreases kinase abundance
Details in all cases: K562; 2-18 h
[1] = molecular target: PDPK1 (UniProt O15530)
[2] = molecular target: PIK4CA (UniProt P42356)
[3] = molecular target: PIK4CB (UniProt Q9UBF8)
[4] = molecular target: PLK1 (UniProt P53350)
[5] = molecular target: PRKAA1 (UniProt Q13131)
[6] = molecular target: PRKCA (UniProt P17252)
[7] = molecular target: PTK2 (UniProt Q05397)
[8] = molecular target: PTK2B (UniProt Q14289)
[9] = molecular target: RAF1 (UniProt P04049)
[10] = molecular target: RAF1_S257L (clone: RAF1_mut) (UniProt P04049)
[11] = molecular target: RET (UniProt P07949)
[12] = molecular target: RET_M918T (clone: RET_mut) (UniProt P07949)
[13] = molecular target: RIOK1 (UniProt Q9BRS2)
[14] = molecular target: RIPK1 (UniProt Q13546)
[15] = molecular target: RIPK2 (UniProt O43353)
[16] = molecular target: ROR2 (UniProt Q01974)
[17] = molecular target: RPS6KA1 (UniProt Q15418)
[18] = molecular target: SPHK1 (UniProt Q9NYA1)
[19] = molecular target: SRC (UniProt P12931)
[20] = molecular target: STK24 (UniProt Q9Y6E0)

Row | SMILES | kinase-Nluc reporter destabilization hit call [1] | kinase-Nluc reporter destabilization hit call [2] | kinase-Nluc reporter destabilization hit call [3] | kinase-Nluc reporter destabilization hit call [4] | kinase-Nluc reporter destabilization hit call [5] | kinase-Nluc reporter destabilization hit call [6] | kinase-Nluc reporter destabilization hit call [7] | kinase-Nluc reporter destabilization hit call [8] | kinase-Nluc reporter destabilization hit call [9] | kinase-Nluc reporter destabilization hit call [10] | kinase-Nluc reporter destabilization hit call [11] | kinase-Nluc reporter destabilization hit call [12] | kinase-Nluc reporter destabilization hit call [13] | kinase-Nluc reporter destabilization hit call [14] | kinase-Nluc reporter destabilization hit call [15] | kinase-Nluc reporter destabilization hit call [16] | kinase-Nluc reporter destabilization hit call [17] | kinase-Nluc reporter destabilization hit call [18] | kinase-Nluc reporter destabilization hit call [19] | kinase-Nluc reporter destabilization hit call [20]
1 | C[C@]1(O)C[C@@H](c2nc(-c3ccc4ccc(-c5ccccc5)nc4c3)c3c(N)nccn32)C1 [Linsitinib] (2.5 µM) | inactive: 0 | inactive: 0 | inactive: 0 | inactive: 0 | inactive: 0 | inactive: 0 | inactive: 0 | inactive: 0 | inactive: 0 | inactive: 0 | inactive: 0 | inactive: 0 | inactive: 0 | inactive: 0 | inactive: 0 | inactive: 0 | inactive: 0 | inactive: 0 | inactive: 0 | inactive: 0
2 | Cc1nc(-c2cnc(NC(C)C)n(C)c2=O)ccc1Oc1ccnc(-c2cnn(C)c2)c1 (2.5 µM) | inactive: 0 | inactive: 0 | inactive: 0 | inactive: 0 | inactive: 0 | inactive: 0 | inactive: 0 | inactive: 0 | inactive: 0 | inactive: 0 | inactive: 0 | inactive: 0 | inactive: 0 | inactive: 0 | inactive: 0 | inactive: 0 | inactive: 0 | inactive: 0 | inactive: 0 | inactive: 0
3 | COc1ccc(NC(=O)N2CCN(c3nc(N)nc4c3cnn4C)[C@@H](C)C2)c(C)c1 (10 µM) | inactive: 0 | inactive: 0 |  | inactive: 0 | inactive: 0 | inactive: 0 | inactive: 0 | inactive: 0 | inactive: 0 | inactive: 0 | inactive: 0 | inactive: 0 | inactive: 0 | inactive: 0 | inactive: 0 | inactive: 0 | inactive: 0 | inactive: 0 | inactive: 0 | inactive: 0
4 | CNC(=O)c1cccc(-c2ccc3c(N4CCOC[C@@H]4C)nc(N4CCOC[C@@H]4C)nc3n2)c1 [Vistusertib] (2.5 µM) | inactive: 0 | inactive: 0 | inactive: 0 | inactive: 0 | inactive: 0 | inactive: 0 | inactive: 0 | inactive: 0 | inactive: 0 | inactive: 0 | inactive: 0 | active: 1 | inactive: 0 | inactive: 0 | inactive: 0 | inactive: 0 | inactive: 0 | inactive: 0 | inactive: 0 | inactive: 0
5 | CN(C)C(=O)/C(C#N)=C/c1ccc(-c2nc3cnc4[nH]ccc4c3n2C2CCCCC2)o1 (10 µM) | inactive: 0 | inactive: 0 | inactive: 0 | inactive: 0 | inactive: 0 | inactive: 0 | inactive: 0 |  | inactive: 0 | inactive: 0 | inactive: 0 | inactive: 0 | inactive: 0 | inactive: 0 | inactive: 0 | inactive: 0 | inactive: 0 | inactive: 0 | inactive: 0 | inactive: 0
6 | Cc1ccc2c(Nc3cccc(OC(F)(F)F)c3)nccc2c1Nc1ncccc1-c1ncnc2[nH]cnc12 (10 µM) | inactive: 0 | inactive: 0 | inactive: 0 | inactive: 0 | inactive: 0 | inactive: 0 | inactive: 0 | inactive: 0 |  | inactive: 0 | inactive: 0 | inactive: 0 | inactive: 0 | inactive: 0 | inactive: 0 | inactive: 0 | inactive: 0 | inactive: 0 | inactive: 0 | inactive: 0
7 | Cc1c(Cn2c(C)nc3c(C(=O)O)cc(N4CCOCC4)cc32)cccc1C(F)(F)F (10 µM) | inactive: 0 | inactive: 0 | inactive: 0 | inactive: 0 |  | inactive: 0 | inactive: 0 | inactive: 0 | inactive: 0 |  | inactive: 0 | inactive: 0 |  |  |  | inactive: 0 | inactive: 0 | inactive: 0 | inactive: 0 | inactive: 0
8 | CCN(CCCOc1ccc2c(Nc3cc(CC(=O)Nc4cccc(F)c4)[nH]n3)ncnc2c1)CCOP(=O)(O)O [Barasertib] (10 µM) | inactive: 0 | inactive: 0 | inactive: 0 | inactive: 0 | inactive: 0 | inactive: 0 | inactive: 0 | inactive: 0 | inactive: 0 | inactive: 0 | inactive: 0 | inactive: 0 | inactive: 0 | inactive: 0 | inactive: 0 | inactive: 0 | inactive: 0 | inactive: 0 | inactive: 0 | inactive: 0
9 | CCc1nc(-c2cccc(C)c2)c(-c2ccnc(NC(=O)c3ccccc3)c2)s1 (10 µM) | inactive: 0 | inactive: 0 | inactive: 0 | inactive: 0 | inactive: 0 | inactive: 0 | inactive: 0 |  | inactive: 0 | inactive: 0 | inactive: 0 | inactive: 0 | inactive: 0 | inactive: 0 | inactive: 0 | inactive: 0 | inactive: 0 | inactive: 0 | inactive: 0 | inactive: 0
10 | Cc1cc(C)c(/C=C2\C(=O)Nc3ccccc32)[nH]1 [Semaxinib] (10 µM) | inactive: 0 | inactive: 0 | inactive: 0 | inactive: 0 | inactive: 0 | inactive: 0 | inactive: 0 |  | inactive: 0 | inactive: 0 |  |  | inactive: 0 | inactive: 0 | inactive: 0 | inactive: 0 | inactive: 0 | inactive: 0 | inactive: 0 | inactive: 0
11 | Cc1cc(N2CCOCC2)cc2[nH]c(-c3c(NC[C@@H](O)c4cccc(Cl)c4)cc[nH]c3=O)nc12 (10 µM) | inactive: 0 | inactive: 0 | inactive: 0 | inactive: 0 | inactive: 0 | inactive: 0 |  | inactive: 0 | inactive: 0 | inactive: 0 |  |  | inactive: 0 | inactive: 0 | inactive: 0 | inactive: 0 | inactive: 0 | inactive: 0 | inactive: 0 | inactive: 0
12 | CC(C)(C)n1nc(Cc2cccc3ccccc23)c2c(N)ncnc21 (10 µM) | inactive: 0 | inactive: 0 | inactive: 0 | inactive: 0 | inactive: 0 | inactive: 0 | inactive: 0 | inactive: 0 | inactive: 0 | inactive: 0 | inactive: 0 | inactive: 0 | inactive: 0 | inactive: 0 | inactive: 0 | inactive: 0 | inactive: 0 | inactive: 0 | inactive: 0 | inactive: 0
13 | Cn1c(=O)c(Oc2ccc(F)cc2F)cc2cnc(NC3CCOCC3)nc21 [R1487 (Hydrochloride)] (10 µM) | inactive: 0 | inactive: 0 | inactive: 0 | inactive: 0 | inactive: 0 | inactive: 0 | inactive: 0 |  | inactive: 0 | inactive: 0 | inactive: 0 | inactive: 0 | inactive: 0 | inactive: 0 | inactive: 0 | inactive: 0 | inactive: 0 | inactive: 0 | inactive: 0 | inactive: 0
14 | CC#CC(=O)N[C@H]1CCCN(c2c(F)cc(C(N)=O)c3[nH]c(C)c(C)c23)C1 [Branebrutinib] (10 µM) | inactive: 0 | inactive: 0 | inactive: 0 | inactive: 0 | inactive: 0 | inactive: 0 | inactive: 0 | inactive: 0 | inactive: 0 | inactive: 0 | inactive: 0 | inactive: 0 | inactive: 0 | inactive: 0 | inactive: 0 | inactive: 0 | inactive: 0 | inactive: 0 | inactive: 0 | inactive: 0
15 | CN1CCN(C(=O)c2ccc(-c3ccc4c(C=O)c(O)ccc4c3)s2)CC1 (2.5 µM) | inactive: 0 | inactive: 0 | inactive: 0 | inactive: 0 | inactive: 0 | inactive: 0 | inactive: 0 | inactive: 0 | inactive: 0 | inactive: 0 | inactive: 0 | inactive: 0 | inactive: 0 | inactive: 0 | inactive: 0 | inactive: 0 | inactive: 0 | inactive: 0 | inactive: 0 | inactive: 0
16 | Cc1ccc(S(=O)(=O)Nc2nc3ccccc3nc2Nc2ccc3nsnc3c2)cc1 [Pilaralisib analogue] (10 µM) |  | inactive: 0 | inactive: 0 | inactive: 0 |  | inactive: 0 | active: 1 | inactive: 0 | inactive: 0 | inactive: 0 | inactive: 0 | inactive: 0 | inactive: 0 | inactive: 0 | inactive: 0 | inactive: 0 | inactive: 0 | inactive: 0 | inactive: 0 | 
17 | Nc1nc(OCC2CCCCC2)c2[nH]cnc2n1 (10 µM) | inactive: 0 | inactive: 0 | inactive: 0 | inactive: 0 | inactive: 0 | inactive: 0 | inactive: 0 | inactive: 0 | inactive: 0 | inactive: 0 | inactive: 0 | inactive: 0 | inactive: 0 | inactive: 0 | inactive: 0 | inactive: 0 | inactive: 0 | inactive: 0 | inactive: 0 | inactive: 0
18 | O=C(O)CCNC(=O)c1ccc(/N=N/c2ccc(O)c(C(=O)O)c2)cc1 [Balsalazide] (10 µM) | inactive: 0 | inactive: 0 | inactive: 0 | inactive: 0 | inactive: 0 | inactive: 0 | inactive: 0 | inactive: 0 | inactive: 0 | inactive: 0 | inactive: 0 | inactive: 0 | inactive: 0 | inactive: 0 | inactive: 0 | inactive: 0 | inactive: 0 | inactive: 0 | inactive: 0 | inactive: 0
19 | CCn1c(=O)c2cc(C(N)=O)c(N)nc2n(C2CC2)c1=O (10 µM) | inactive: 0 | inactive: 0 | inactive: 0 | inactive: 0 | inactive: 0 | inactive: 0 | inactive: 0 | inactive: 0 | inactive: 0 | inactive: 0 | inactive: 0 | inactive: 0 | inactive: 0 | inactive: 0 | inactive: 0 | inactive: 0 | inactive: 0 | inactive: 0 | inactive: 0 | inactive: 0
20 | CNC(=O)c1cc(Oc2ccc(NC(=O)Nc3cc(C(C)(C)C)nn3-c3ccc4ncccc4c3)c(F)c2)ccn1 [Rebastinib] (2.5 µM) | inactive: 0 | inactive: 0 | inactive: 0 | inactive: 0 | inactive: 0 | inactive: 0 | inactive: 0 | inactive: 0 | inactive: 0 | inactive: 0 | inactive: 0 | inactive: 0 | inactive: 0 | inactive: 0 | inactive: 0 | inactive: 0 | inactive: 0 | inactive: 0 | inactive: 0 | inactive: 0

Full records, looked up by structure. Values in the order: kinase-Nluc reporter destabilization hit call [1] | kinase-Nluc reporter destabilization hit call [2] | kinase-Nluc reporter destabilization hit call [3] | kinase-Nluc reporter destabilization hit call [4] | kinase-Nluc reporter destabilization hit call [5] | kinase-Nluc reporter destabilization hit call [6] | kinase-Nluc reporter destabilization hit call [7] | kinase-Nluc reporter destabilization hit call [8] | kinase-Nluc reporter destabilization hit call [9] | kinase-Nluc reporter destabilization hit call [10] | kinase-Nluc reporter destabilization hit call [11] | kinase-Nluc reporter destabilization hit call [12] | kinase-Nluc reporter destabilization hit call [13] | kinase-Nluc reporter destabilization hit call [14] | kinase-Nluc reporter destabilization hit call [15] | kinase-Nluc reporter destabilization hit call [16] | kinase-Nluc reporter destabilization hit call [17] | kinase-Nluc reporter destabilization hit call [18] | kinase-Nluc reporter destabilization hit call [19] | kinase-Nluc reporter destabilization hit call [20]
CC#CC(=O)N[C@H]1CCCN(c2c(F)cc(C(N)=O)c3[nH]c(C)c(C)c23)C1 [Branebrutinib] (10 µM) in the list: inactive: 0 | inactive: 0 | inactive: 0 | inactive: 0 | inactive: 0 | inactive: 0 | inactive: 0 | inactive: 0 | inactive: 0 | inactive: 0 | inactive: 0 | inactive: 0 | inactive: 0 | inactive: 0 | inactive: 0 | inactive: 0 | inactive: 0 | inactive: 0 | inactive: 0 | inactive: 0
C[C@]1(O)C[C@@H](c2nc(-c3ccc4ccc(-c5ccccc5)nc4c3)c3c(N)nccn32)C1 [Linsitinib] (2.5 µM) in the list: inactive: 0 | inactive: 0 | inactive: 0 | inactive: 0 | inactive: 0 | inactive: 0 | inactive: 0 | inactive: 0 | inactive: 0 | inactive: 0 | inactive: 0 | inactive: 0 | inactive: 0 | inactive: 0 | inactive: 0 | inactive: 0 | inactive: 0 | inactive: 0 | inactive: 0 | inactive: 0
